# Data: PubChem BioAssay AID2417 (National Center for Advancing Translational Sciences (NCATS), 2010)
# The campaign covered roughly 140,000 compounds. About 4,300 (3.1%) were called active. Inconclusive means that the source gave no clear call. Such entries were picked first, then a sample of the others.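 The calls were made as follows: active = readout at or below -70, meaning at least 70% loss of cells showing the perinucleolar compartment, a nuclear body marking cancer cells; inconclusive = readout between -30 and a set limit; inactive = the rest.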
# Assay: High Content Assay for Compounds that inhibit the Assembly of the Perinucleolar Compartment;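 also: plate controls were DMSO wells for no effect and camptothecin positive control wells for full effect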
# Conditions: PC3M PTB-GFP, PNC prevalence imaging, 16 h; at 10 µM; stronger effect = lower value
# In short: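 PC3M cells stably expressing PTB-GFP, 750–1000 cells/well, treated 16 h at 37 °C with compound (23 nl of library stock), in duplicate. After paraformaldehyde fixation and Hoechst stain, imaged at 20x; PNC prevalence scored by image analysis.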
row,SMILES,"activity change (PNC), negative = inhibition"
1,Cc1cc(C)cc(N2C(=O)C3CC=CCC3C2=O)c1 (stereo not given),inconclusive: -41.9%
2,COC(=O)c1ccc(Oc2nc(N3CCCCC3)nc(N3CCOCC3)n2)cc1,inconclusive: -71%
3,COc1ncnc2sc(-c3ccccc3)cc12,inactive: 13.3%
4,COC(=O)NNC(=O)c1ccc(C(C)(C)C)cc1,inactive: 14.1%
5,COc1ccc(-c2nnc3ccc(SCC(=O)N4CCOCC4)nn23)cc1,inactive: 7.09%
6,COc1ccc(OCCSc2nc3ccccc3n2CC(=O)O)cc1,inconclusive: -50%
7,Nc1nonc1OCCc1ccccc1,inconclusive: -71.5%
8,CCn1nc(C)c(/C=N/NC(=O)Cc2ccc(Cl)cc2)c1C,inactive: 49.9%
9,CCOC(=O)C(C(=O)OCC)C(C(=O)OCC)N1CCOCC1 (stereo not given),inactive: 21.3%
10,CCOCCCNC(=O)CN1C(=O)/C(=C\c2ccc(C)cc2)Sc2ccccc21,inconclusive: -36.4%
11,COCCNC(=O)c1nn2cccnc2c1Cl,inactive: -8.46%
12,Cc1ccc(S(=O)(=O)N2CCOCC(=O)NCCOCCNC(=O)COCC2)cc1,inactive: 0.987%
13,COc1ccccc1-n1c(=O)c2c3c(sc2n2c(SC(C)C)nnc12)CCC3,inconclusive: -61.9%
14,CCOC(=O)c1c(C)c(C(=O)NC(C)COC)c(C)n1C (stereo not given),inconclusive: -58.4%
15,COC(=O)CC1Oc2ccccc2N(Cc2ccccc2)C1=O (stereo not given),inconclusive: -70.4%
16,Cc1nnc(SCC(=O)Nc2sc3c(c2C(N)=O)CCCC3)[nH]c1=O,inactive: 59.9%
17,Cc1ccccc1NC(=O)Cc1nc(-c2ccc3ccccc3c2)cs1,inconclusive: -38.5%
18,COc1ccc(C(=O)OC/C(O)=C(\C#N)c2nc3ccccc3[nH]2)cc1S(=O)(=O)N1CCOCC1,inactive: -16.1%
19,Cc1cc(C(=O)Nc2c(C)n(C)n(-c3ccccc3)c2=O)cs1,inconclusive: -30.6%
20,Cc1cccc(-n2c(SCC(=O)N3CC(=O)Nc4ccccc43)nc3ccccc3c2=O)c1C,inconclusive: -31.4%
21,COC(=O)c1ccc(NC(=O)CN2C(=O)C3C4C=CC(C4)C3C2=O)cc1 (stereo not given),inactive: 20.2%
22,COc1ccc(NC(=S)c2ccc(N(C)C)cc2)cc1,inconclusive: -39.1%
23,O=C(CN1C2=NCCN2c2ccccc21)c1cccs1,inactive: -2.86%

# As a working copy, part of the list above:
row,SMILES,"activity change (PNC), negative = inhibition"
8,CCn1nc(C)c(/C=N/NC(=O)Cc2ccc(Cl)cc2)c1C,inactive: 49.9%
9,CCOC(=O)C(C(=O)OCC)C(C(=O)OCC)N1CCOCC1 (stereo not given),inactive: 21.3%

# Continuation.

row,SMILES,"activity change (PNC), negative = inhibition"
1,COc1cccc(C2CC(c3cccs3)=NN2C(=O)CSc2nc3ccccc3o2)c1OC (stereo not given),inconclusive: -63.2%
2,CCCCCOc1ccc(CSC2=NCCN2)cc1[N+](=O)[O-],active: -84.7%
3,CNCCCOc1ccc(C(C)(C)c2ccccc2)cc1,inconclusive: -34.5%
4,Cc1ccc(NC(=O)CCC(=O)NNC(=O)c2cccc([N+](=O)[O-])c2)cc1C,inactive: -20.3%
5,N#Cc1cccc(NC(=O)COC(=O)c2ccccc2C(=O)c2ccc(Cl)c([N+](=O)[O-])c2)c1,active: -102%
6,COC(=O)C1=CC(C(=O)c2cccs2)=NN(c2ccc(OC)cc2)C1C(=O)OC (stereo not given),inactive: 34.9%
7,COc1ccc(N2CCN(C(=O)c3ccc(OCC4CCCO4)cc3)CC2)cc1 (stereo not given),inactive: 22.6%
8,COCCNC(=O)c1ccc(N(C)S(=O)(=O)c2ccc(OC)c(OC)c2)cc1,inactive: 162%
9,CC1(C)NC(=O)N(CC(O)Cn2nnc3ccccc32)C1=O (stereo not given),inactive: -29.7%
10,CC(C)CCOc1ncnc2c1sc1nc3c(cc12)CSC(C)(C)C3,inactive: 15.6%
11,Cc1ccc(Nc2nc(-c3c(C)nc4ncccn34)cs2)cc1,inconclusive: -57.5%
12,CC(Nc1cc(N2CCNCC2)ccc1[N+](=O)[O-])c1ccccc1 (stereo not given),inconclusive: -40.8%
13,O=C1CC(SCCc2nc3ccccc3[nH]2)C(=O)N1c1ccc(Cl)cc1 (stereo not given),inactive: 7.09%
14,CCOC(=O)C1(C/C(C)=N/NC(N)=O)CC(C)(C)OC1=O (stereo not given),inconclusive: -36.8%
15,CCN(CC)c1ccc([N+](=O)[O-])cc1C(=O)O,inconclusive: -51.8%
16,CC(=O)c1ccc(Oc2cc(C)nc(-n3nc(C)cc3C)n2)cc1,active: -86.2%
17,Cc1cc(=O)n(CC=C(Cl)Cl)c2ccccc12,inconclusive: -71.3%
18,O=C(OCC(=O)N1CCCCCC1)c1cccs1,inconclusive: -51.8%
19,O=C(CN1CCC(C(=O)c2ccc(F)cc2)CC1)Nc1ccc(F)cc1,inconclusive: -54.5%
20,COc1cccc(Oc2ccc(C(F)(F)F)cc2NC(=O)c2cccc(F)c2)c1,inconclusive: -30.2%
21,CC1(C)CC(CC(=O)Nc2ccccc2[N+](=O)[O-])C(=O)O1 (stereo not given),inconclusive: -32.3%
22,CSc1nc2cc(S(=O)(=O)N3CCOCC3)ccc2s1,inconclusive: -56%
